# Source: article PMC5993538, “The plant-specific transcription factors CBP60g and SARD1 are targeted by a Verticillium secretory protein VdSCP41 to modulate immunity”
# These are yes or no findings as the source states them, for the method shown. Binding seen in cells or lysates may run through a third protein. These calls come from enrichment with a bait or labelling near it, and not all partners need be listed.
# B1: CBP60g (endogenous, Arabidopsis protoplasts) (protein, UniProt F4K2R6 1-563)
# chain: MKIRNSPSFHGGSGYSVFRARNLTFKKVVKKVMRDQSNNQFMIQMENMIRRIVREEIQRSLQPFLSSSCVSMERSRSETPSSRSRLKLCFINSPPSSIFTGSKIEAEDGSPLVIELVDATTNTLVSTGPFSSSRVELVPLNADFTEESWTVEGFNRNILTQREGKRPLLTGDLTVMLKNGVGVITGDIAFSDNSSWTRSRKFRLGAKLTGDGAVEARSEAFGCRDQRGESYKKHHPPCPSDEVWRLEKIAKDGVSATRLAERKILTVKDFRRLYTVNRNELHNIIGAGVSKKTWNTIVSHAMDCVLDETECYIYNANTPGVTLLFNSVYELIRVSFNGNDIQNLDQPILDQLKAEAYQNLNRITAVNDRTFVGHPQRSLQCPQDPGFVVTCSGSQHIDFQGSLDPSSSSMALCHKASSSTVHPDVLMSFDNSSTARFHIDKKFLPTFGNSFKVSELDQVHGKSQTVVTKGCIENNEEDENAFSYHHHDDMTSSWSPGTHQAVETMFLTVSETEEAGMFDVHFANVNLGSPRARWCKVKAAFKVRAAFKEVRRHTTARNPREGL
# Target: ΔspVdSCP41 fused with a 3 × FLAG tag (Verticillium dahliae)
# Experiment: affinity purification with mass spectrometry; ΔspVdSCP41-3×FLAG expressed in Arabidopsis protoplasts; lysate (50 mM HEPES pH 7.5, 150 mM KCl, 1 mM EDTA, 1 mM DTT, 0.2% Triton X-100) on anti-FLAG agarose beads 12 hr at 4°C, eluted with 3 × FLAG peptide, tandem mass spectrometry
binder,measurement,value
B1,binding,binds
